From paper PMC9702540
These are yes or no findings as the source states them, for the method shown. For some of these results: Binding can be weak; no strength is given. Where a sequence is shown, tags or fusion partners need not be part of it. For some of these results: In cells and extracts the contact can be indirect.

Legend:
[1] = target: GST-SREBP-1 (AA1-250) (Drosophila); assay: pull-down; GST pull-down: GST-SREBP fragments as bait, His-tagged Cdk8 (AA1-262) or His-tagged MED15 as prey, read by Western blot; protocol as in Li et al., 2020; only the target purified
[2] = target: GST-SREBP-1-A-3 (AA1-75) (Drosophila); assay: as above
[3] = target: GST-SREBP-1-A-2 (AA1-50) (Drosophila); assay: as above
[4] = target: GST-SREBP-1-A-3 (AA1-75) with AA36-41 (DMLDII) mutated to six alanines (Drosophila); assay: as above
[5] = target: GST-SREBP-1-C (AA151-250) (Drosophila); assay: as above
[6] = target: GST-SREBP-1-A (AA1-100) (Drosophila); assay: as above
[7] = target: GST-SREBP-1-A-1 (AA1-25) (Drosophila); assay: as above
[8] = target: GST-SREBP-2 (AA201-350, containing the bHLH-Zip domain) (Drosophila); assay: as above
[9] = target: GST-SREBP-3 (AA301-451) (Drosophila); assay: as above
[10] = target: GST-SREBP-1-B (AA51-200) (Drosophila); assay: as above
[11] = target: SREBP AA1-50 fused to the GAL4 DNA-binding domain (bait) (Drosophila); assay: two-hybrid; yeast two-hybrid in AH109; SREBP AA1-50 as GAL4 DNA-binding domain bait, Cdk8 or MED15 as GAL4 activation domain prey; SD/-Leu/-Trp/-His with 2.5, 5 or 10 mM 3-AT

binding [1]	binding [2]	binding [3]	binding [4]	binding [5]	binding [6]	binding [7]	binding [8]	binding [9]	binding [10]	binding [11]	Binder
binds	binds	binds	no binding	no binding	binds	no binding	no binding	no binding	no binding	–	His-Cdk8-N (AA1-262) (domain or fragment, UniProt Q9VT57 1-262) MDYDFKMKTQIERTKVEDLFNYEGCKVGRGTYGHVYKAKWKETSDGKEYALKQIDGTGLSMSACREIALLRELKHQNVITLIRVFLSHNDRKVFLLIDYAEHDLWHIIKFHRAAKATKKQVVVPRGMVKSLLYQILDGIHYLHSNWVLHRDLKPANILVMGDGNERGRVKIADMGFARLFNAPLKPLADLDPVVVTFWYRAPELLLGARHYTKAIDIWAIGCIFAELLTSEPIFHCRQEDIKTSNPYHHDQLDRIFNVMGFP
–	binds	–	no binding	–	–	–	–	–	–	–	His-tagged full-length Drosophila MED15 protein (protein, UniProt Q9Y149 1-749) MTEDWQSQKFRQNVISKIHDLLPPNAQDQTKNAGVMENHIFRKSRTKDEYLGLVAKLFMHYKDMSRKSQQQQQQQQQQGGPPPNAEMGGGQNMMQDPLNALQNLASQGNRNPQMMPMGAGGGAPVPGGPGTASNLLQSLNQQRPGQQQMQPMSNIRGQMPMGAGGAGAQQMMQVQQMQQGGNAPGVMNVMGAGGGQNQGQIVGNPGQQMGVGVGMPNQMVGPGPNSGPAVGGAGGPNAAPGAGGPGPNQMQGGPMNVNAMQQMPPMQQIQQNQLGMGMNPMMRMGQGNGMGGPQGMPGQGMQGMPQGPHNVVGGPAGQQQVGGAGLPPNAVQQGGMNPMGGMGVNMPPNLQQKPNMPMGQAGQMFPGNRGGVGVGGQQPGQPFMRSSPSPADAQQLQQQAQLQQMQQQQQQLVVGNQTPTQQPPTPQMPTPNMIPSPALVPQSSPQMMQMQNSQRNIRQQSPSASINTPGQVTGNSPFNPQEEALYREKYKQLTKYIEPLKRMLAKISNDGTNVEKMTKMSKLLEILCNPTQRVPLETLLKCEKALEKMDLISYSGQQFGKSSNPLLEVINTTLQSPVANHTLYRTFRPTLELLFGTDITAPVPAKRPRVEEKSTSFEQEVPHVLQGEIARLDTKFKVKLDTTSQINNKAIRLICCLDDKRLPSVPPVSVSVPEEYPWQAPDCSLAEQEYSATPFLQTVQQALIARISKLPKNYSLSHLLDTWEMAVRQACSPQSKPRAVCELSTLLGV
–	–	–	–	–	–	–	–	–	–	binds	MED15 (full length) fused to the GAL4 activation domain (prey) (protein, UniProt Q9Y149 1-749) MTEDWQSQKFRQNVISKIHDLLPPNAQDQTKNAGVMENHIFRKSRTKDEYLGLVAKLFMHYKDMSRKSQQQQQQQQQQGGPPPNAEMGGGQNMMQDPLNALQNLASQGNRNPQMMPMGAGGGAPVPGGPGTASNLLQSLNQQRPGQQQMQPMSNIRGQMPMGAGGAGAQQMMQVQQMQQGGNAPGVMNVMGAGGGQNQGQIVGNPGQQMGVGVGMPNQMVGPGPNSGPAVGGAGGPNAAPGAGGPGPNQMQGGPMNVNAMQQMPPMQQIQQNQLGMGMNPMMRMGQGNGMGGPQGMPGQGMQGMPQGPHNVVGGPAGQQQVGGAGLPPNAVQQGGMNPMGGMGVNMPPNLQQKPNMPMGQAGQMFPGNRGGVGVGGQQPGQPFMRSSPSPADAQQLQQQAQLQQMQQQQQQLVVGNQTPTQQPPTPQMPTPNMIPSPALVPQSSPQMMQMQNSQRNIRQQSPSASINTPGQVTGNSPFNPQEEALYREKYKQLTKYIEPLKRMLAKISNDGTNVEKMTKMSKLLEILCNPTQRVPLETLLKCEKALEKMDLISYSGQQFGKSSNPLLEVINTTLQSPVANHTLYRTFRPTLELLFGTDITAPVPAKRPRVEEKSTSFEQEVPHVLQGEIARLDTKFKVKLDTTSQINNKAIRLICCLDDKRLPSVPPVSVSVPEEYPWQAPDCSLAEQEYSATPFLQTVQQALIARISKLPKNYSLSHLLDTWEMAVRQACSPQSKPRAVCELSTLLGV
